# Results from the supplement of paper PMC12889115.
# This is one part of the list. Values are raw readings; no control value is given beside them.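 Primary screen: polymyxin B was added at a level permeabilizing Salmonella outer membranes while sparing inner membranes. DMSO wells, both with and without polymyxin B, established maximum growth. Plate-to-plate variation meant each plate was ranked on its own, and the lowest-OD600 compounds were selected as hits.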
# System: Salmonella enterica serovar Typhimurium SL1344
# Test: bacterial growth OD600 after 18 h with compound and polymyxin B; higher = more bacterial growth (less inhibition)
# Settings: 50 µM, Mueller-Hinton broth
SMILES,bacterial growth OD600 (polymyxin B 1 µg/mL),bacterial growth OD600 (polymyxin B 0.75 µg/mL)
O=C(c1ccc(NC2CC2)nc1)N1CCCCC1CCn1cccn1 (stereo not given),0.947,–
Cc1nc2sccn2c1CN1CCC(C(Cc2ccccc2)N(C)C(=O)C2CCOCC2)CC1 (stereo not given),–,0.838
CN(CCc1ccccc1)Cc1nc(Cc2cccc(C(F)(F)F)c2)no1,1.03,–
Cc1nccn1-c1ccc(NC(=O)C2CCCN(Cc3ccc4c(c3)CCO4)C2)cc1 (stereo not given),0.888,–
COc1ccc(C(=O)N(Cc2ccc(OC)c(OCc3cccs3)c2)C2CCCC2)c(OC)c1,–,0.002
CC(=O)c1cccc(CN2CCC(CCC(=O)Nc3ccccc3Cl)CC2)c1,0.887,–
CN(Cc1nc(C(c2ccccc2)c2ccccc2)no1)C1CCOCC1,0.787,–
CCCC(=O)N1CCC2(CCCN(Cc3cccc(F)c3F)C2=O)C1 (stereo not given),1.1,–
Cc1cc(C)n(Cc2cc(C(=O)N(C)CCOc3ccccc3)n[nH]2)n1,0.874,–
CCCCNC(=O)C1CCCN(C2CCN(Cc3ccccc3)CC2)C1 (stereo not given),–,0.59
COc1cccc(N2C(=O)CN(CCC(C)C)CC2C)c1 (stereo not given),–,0.786
COc1ccc(/C=C/CN2CCCC(CNC(=O)c3cccs3)C2)cc1 (stereo not given),0.9,–
COC(=O)[C@@H](NC(=O)CCC1(Cc2ccc3ccccc3c2)CCC(=O)N1)C(C)C (stereo not given in full),–,0.759
CCOC(=O)N1CCC(NC2CCN(c3ccc(CC(=O)NCc4ccccc4)cc3)CC2)CC1,–,0.824
CC1=C(C(=O)N2CCC(C3CCN(c4ncccn4)CC3)C2)OCCO1 (stereo not given),–,0.836
Cc1ccc(CN2CCC(n3nccc3NC(=O)c3ccccc3)CC2)s1,–,0.738
CNC(=O)CC(c1ccccc1)c1ccc2c(c1)OCO2 (stereo not given),–,0.793
COCC(=O)Nc1cc(C(=O)N2CCN(Cc3ncccc3C)CC2)c2c(c1)nc(C1CCC1)n2C,–,0.805
Cc1nc(CN2CCN(C(=O)Cn3nnnc3CN3CCCC3)CC2)cs1,–,0.842
COc1ccccc1CCN1CCC(CN(C)C(=O)c2occc2C)CC1,–,0.781
COC(=O)c1ccc(N2CCN(C(=O)CC3C(=O)NCCN3Cc3ccccc3)CC2)cc1 (stereo not given),1.29,–
COc1ccccc1CCc1nnc(CCC(=O)NCc2cc(F)ccc2C)o1,–,0.738
C[C@@H]1CN(C(=O)c2cc(COc3c(F)cccc3F)on2)C[C@H](C)O1,–,0.824
CCN1CCCC1CNC(=O)C1CCN(c2nc(-c3ccccc3)nc3c2CCC3)CC1 (stereo not given),0.118,–
COc1cc(F)ccc1CN1CCCC(N(C)CCc2ccc(OC)c(OC)c2)C1 (stereo not given),1.25,–
COc1cccc(CN2CCC(C(Cc3ccccc3Cl)N(C)C(=O)c3ccco3)CC2)c1 (stereo not given),–,0.669
COCCN1C(=O)CC(CC(=O)N(CC2CCC2)CC2CCCO2)(c2cccc(OC)c2)C1=O (stereo not given),–,0.758
O=C(CCOc1ccccc1)Nc1ccnn1C1CCN(C(=O)c2ccco2)CC1,0.811,–
O=C1CCCN1CC(=O)N1CCc2onc(-c3ccc(-c4ccccc4)cc3)c2C1,–,0.199
Cc1cccc(C)c1Oc1ncccc1CNC(=O)CCc1[nH]nc(C)c1C,1.2,–

# Among those listed so far, two contain an NH in an aromatic ring:
SMILES,bacterial growth OD600 (polymyxin B 1 µg/mL),bacterial growth OD600 (polymyxin B 0.75 µg/mL)
Cc1cc(C)n(Cc2cc(C(=O)N(C)CCOc3ccccc3)n[nH]2)n1,0.874,–
Cc1cccc(C)c1Oc1ncccc1CNC(=O)CCc1[nH]nc(C)c1C,1.2,–
